Our source for the log2 fold change values is the supplement of paper PMC10849652.

By UniProt entry, the sequences of proteins in these tests, tags left out. Where a name states a change or a piece, a line headed by the entry shows the natural chain unless it says otherwise.
UniProt Q96S82: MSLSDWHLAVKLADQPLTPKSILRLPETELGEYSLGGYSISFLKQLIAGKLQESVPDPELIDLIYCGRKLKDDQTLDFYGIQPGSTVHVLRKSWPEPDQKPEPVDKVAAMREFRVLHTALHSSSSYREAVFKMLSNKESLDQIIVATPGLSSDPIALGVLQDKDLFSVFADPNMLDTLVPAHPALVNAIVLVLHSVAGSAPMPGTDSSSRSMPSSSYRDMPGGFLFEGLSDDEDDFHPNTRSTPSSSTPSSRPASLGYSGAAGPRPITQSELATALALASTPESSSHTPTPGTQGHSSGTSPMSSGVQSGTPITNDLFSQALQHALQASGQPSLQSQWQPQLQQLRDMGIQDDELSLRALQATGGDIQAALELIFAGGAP
UniProt Q9NWZ5: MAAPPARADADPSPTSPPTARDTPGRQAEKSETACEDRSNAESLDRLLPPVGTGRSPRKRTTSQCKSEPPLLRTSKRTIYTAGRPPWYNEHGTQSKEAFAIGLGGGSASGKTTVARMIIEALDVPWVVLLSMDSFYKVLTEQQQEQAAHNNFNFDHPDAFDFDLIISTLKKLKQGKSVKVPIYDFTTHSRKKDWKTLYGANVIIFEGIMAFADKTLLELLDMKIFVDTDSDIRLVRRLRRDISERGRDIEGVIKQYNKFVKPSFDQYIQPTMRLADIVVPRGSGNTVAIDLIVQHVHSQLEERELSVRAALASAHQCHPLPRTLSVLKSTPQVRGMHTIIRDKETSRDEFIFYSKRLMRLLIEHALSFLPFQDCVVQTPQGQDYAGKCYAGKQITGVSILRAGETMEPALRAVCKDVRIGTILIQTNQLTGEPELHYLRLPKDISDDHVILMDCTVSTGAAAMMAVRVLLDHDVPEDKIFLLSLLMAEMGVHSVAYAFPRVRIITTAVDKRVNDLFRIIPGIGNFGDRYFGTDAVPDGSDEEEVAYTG
UniProt P31930: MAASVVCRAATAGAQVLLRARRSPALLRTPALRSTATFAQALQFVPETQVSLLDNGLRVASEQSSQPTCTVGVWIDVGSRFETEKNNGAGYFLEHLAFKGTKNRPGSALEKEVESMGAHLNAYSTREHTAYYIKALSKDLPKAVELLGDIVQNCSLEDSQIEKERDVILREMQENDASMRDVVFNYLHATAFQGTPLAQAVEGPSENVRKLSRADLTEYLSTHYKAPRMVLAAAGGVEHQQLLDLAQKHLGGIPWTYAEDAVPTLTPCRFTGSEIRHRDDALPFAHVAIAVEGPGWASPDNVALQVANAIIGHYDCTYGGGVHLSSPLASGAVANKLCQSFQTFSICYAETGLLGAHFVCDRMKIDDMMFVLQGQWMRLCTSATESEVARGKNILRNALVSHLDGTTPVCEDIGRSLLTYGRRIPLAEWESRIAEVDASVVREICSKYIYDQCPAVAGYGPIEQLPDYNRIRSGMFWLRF
UniProt Q9BV40: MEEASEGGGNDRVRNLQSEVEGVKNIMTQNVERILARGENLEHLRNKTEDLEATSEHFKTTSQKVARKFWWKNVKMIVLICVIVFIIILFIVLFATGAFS
UniProt O94763, whole entry, looked up: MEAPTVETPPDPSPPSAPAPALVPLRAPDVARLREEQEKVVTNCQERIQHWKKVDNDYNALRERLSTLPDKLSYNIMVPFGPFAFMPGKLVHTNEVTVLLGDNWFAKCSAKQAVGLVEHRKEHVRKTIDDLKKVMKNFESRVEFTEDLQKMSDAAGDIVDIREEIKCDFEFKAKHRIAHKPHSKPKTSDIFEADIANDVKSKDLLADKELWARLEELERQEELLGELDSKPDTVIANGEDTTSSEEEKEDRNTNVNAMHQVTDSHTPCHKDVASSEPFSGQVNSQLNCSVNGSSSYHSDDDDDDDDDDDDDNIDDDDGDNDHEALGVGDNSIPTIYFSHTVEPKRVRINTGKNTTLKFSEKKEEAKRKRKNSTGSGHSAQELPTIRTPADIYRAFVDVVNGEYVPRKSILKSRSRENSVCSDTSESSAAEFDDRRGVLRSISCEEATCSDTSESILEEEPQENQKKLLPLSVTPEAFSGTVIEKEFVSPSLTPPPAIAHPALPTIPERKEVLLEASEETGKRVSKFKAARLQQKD
UniProt Q08AM6: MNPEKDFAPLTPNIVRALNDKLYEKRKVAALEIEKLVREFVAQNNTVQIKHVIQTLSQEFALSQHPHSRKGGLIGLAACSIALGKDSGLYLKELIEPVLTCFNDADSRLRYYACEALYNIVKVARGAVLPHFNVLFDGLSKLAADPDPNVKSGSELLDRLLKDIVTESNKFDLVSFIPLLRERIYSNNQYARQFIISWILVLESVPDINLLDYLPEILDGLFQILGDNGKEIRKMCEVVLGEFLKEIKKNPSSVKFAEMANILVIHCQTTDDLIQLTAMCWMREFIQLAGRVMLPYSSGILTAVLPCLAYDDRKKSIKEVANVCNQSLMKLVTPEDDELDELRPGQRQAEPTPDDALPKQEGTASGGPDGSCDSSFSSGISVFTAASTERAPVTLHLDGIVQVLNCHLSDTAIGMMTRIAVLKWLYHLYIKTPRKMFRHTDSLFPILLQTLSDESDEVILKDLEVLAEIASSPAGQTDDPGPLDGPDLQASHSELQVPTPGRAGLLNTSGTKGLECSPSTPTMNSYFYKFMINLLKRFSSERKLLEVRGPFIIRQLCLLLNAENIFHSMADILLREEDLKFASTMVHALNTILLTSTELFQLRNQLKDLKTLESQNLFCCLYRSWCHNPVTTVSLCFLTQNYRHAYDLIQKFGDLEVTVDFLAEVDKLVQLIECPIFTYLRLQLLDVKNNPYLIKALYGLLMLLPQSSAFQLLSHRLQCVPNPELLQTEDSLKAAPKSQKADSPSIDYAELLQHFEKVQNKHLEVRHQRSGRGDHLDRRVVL
UniProt Q8IX04: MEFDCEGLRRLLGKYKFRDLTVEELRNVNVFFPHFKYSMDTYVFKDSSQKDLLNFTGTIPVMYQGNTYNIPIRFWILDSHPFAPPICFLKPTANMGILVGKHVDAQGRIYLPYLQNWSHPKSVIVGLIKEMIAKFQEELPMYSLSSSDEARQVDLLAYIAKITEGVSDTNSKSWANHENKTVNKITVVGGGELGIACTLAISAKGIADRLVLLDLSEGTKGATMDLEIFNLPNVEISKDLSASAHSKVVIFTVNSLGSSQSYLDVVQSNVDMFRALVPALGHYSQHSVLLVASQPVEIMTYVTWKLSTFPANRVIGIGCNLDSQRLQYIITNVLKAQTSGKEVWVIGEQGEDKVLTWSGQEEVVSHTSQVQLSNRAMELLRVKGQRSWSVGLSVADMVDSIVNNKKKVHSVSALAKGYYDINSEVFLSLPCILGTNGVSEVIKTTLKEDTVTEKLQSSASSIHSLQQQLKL
UniProt Q9NUQ7: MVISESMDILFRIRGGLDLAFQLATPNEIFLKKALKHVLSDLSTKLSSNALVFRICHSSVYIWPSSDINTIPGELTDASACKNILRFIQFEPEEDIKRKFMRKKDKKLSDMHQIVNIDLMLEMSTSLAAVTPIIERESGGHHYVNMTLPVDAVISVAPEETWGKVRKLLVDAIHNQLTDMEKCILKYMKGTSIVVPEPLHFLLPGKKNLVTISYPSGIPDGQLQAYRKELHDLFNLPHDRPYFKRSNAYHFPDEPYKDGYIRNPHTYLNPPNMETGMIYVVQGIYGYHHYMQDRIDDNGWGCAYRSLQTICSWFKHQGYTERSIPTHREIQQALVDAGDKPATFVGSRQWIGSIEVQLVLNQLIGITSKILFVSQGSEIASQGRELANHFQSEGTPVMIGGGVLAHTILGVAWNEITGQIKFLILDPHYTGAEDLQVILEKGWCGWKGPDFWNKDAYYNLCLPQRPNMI
UniProt Q9Y3C8: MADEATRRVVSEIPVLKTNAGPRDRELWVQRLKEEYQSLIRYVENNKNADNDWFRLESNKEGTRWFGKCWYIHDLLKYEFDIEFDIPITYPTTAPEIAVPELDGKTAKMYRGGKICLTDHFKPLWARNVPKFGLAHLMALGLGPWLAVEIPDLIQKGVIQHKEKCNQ
UniProt Q9H347: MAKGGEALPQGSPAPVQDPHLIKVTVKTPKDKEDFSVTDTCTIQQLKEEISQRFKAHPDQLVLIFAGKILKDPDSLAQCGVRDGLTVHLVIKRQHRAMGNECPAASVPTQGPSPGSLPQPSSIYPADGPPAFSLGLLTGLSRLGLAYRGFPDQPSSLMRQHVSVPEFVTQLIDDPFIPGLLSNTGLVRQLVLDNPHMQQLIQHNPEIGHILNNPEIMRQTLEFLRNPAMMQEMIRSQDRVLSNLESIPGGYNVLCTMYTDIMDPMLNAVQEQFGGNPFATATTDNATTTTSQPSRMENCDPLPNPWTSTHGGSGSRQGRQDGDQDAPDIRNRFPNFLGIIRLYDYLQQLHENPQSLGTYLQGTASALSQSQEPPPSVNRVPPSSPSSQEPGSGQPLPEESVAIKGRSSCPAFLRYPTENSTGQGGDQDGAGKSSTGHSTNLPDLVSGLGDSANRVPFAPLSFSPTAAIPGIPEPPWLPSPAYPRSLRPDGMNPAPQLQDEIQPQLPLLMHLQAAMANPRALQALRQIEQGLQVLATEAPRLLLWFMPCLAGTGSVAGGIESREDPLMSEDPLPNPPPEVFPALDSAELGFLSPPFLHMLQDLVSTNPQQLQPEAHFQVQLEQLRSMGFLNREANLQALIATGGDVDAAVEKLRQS
UniProt P61758, whole entry, looked up: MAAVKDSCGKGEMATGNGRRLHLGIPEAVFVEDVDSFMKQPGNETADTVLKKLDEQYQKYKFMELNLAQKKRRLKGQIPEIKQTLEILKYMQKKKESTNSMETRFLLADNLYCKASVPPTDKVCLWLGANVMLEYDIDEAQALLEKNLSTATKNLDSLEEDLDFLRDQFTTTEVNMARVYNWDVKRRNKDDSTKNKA
UniProt Q53GS9: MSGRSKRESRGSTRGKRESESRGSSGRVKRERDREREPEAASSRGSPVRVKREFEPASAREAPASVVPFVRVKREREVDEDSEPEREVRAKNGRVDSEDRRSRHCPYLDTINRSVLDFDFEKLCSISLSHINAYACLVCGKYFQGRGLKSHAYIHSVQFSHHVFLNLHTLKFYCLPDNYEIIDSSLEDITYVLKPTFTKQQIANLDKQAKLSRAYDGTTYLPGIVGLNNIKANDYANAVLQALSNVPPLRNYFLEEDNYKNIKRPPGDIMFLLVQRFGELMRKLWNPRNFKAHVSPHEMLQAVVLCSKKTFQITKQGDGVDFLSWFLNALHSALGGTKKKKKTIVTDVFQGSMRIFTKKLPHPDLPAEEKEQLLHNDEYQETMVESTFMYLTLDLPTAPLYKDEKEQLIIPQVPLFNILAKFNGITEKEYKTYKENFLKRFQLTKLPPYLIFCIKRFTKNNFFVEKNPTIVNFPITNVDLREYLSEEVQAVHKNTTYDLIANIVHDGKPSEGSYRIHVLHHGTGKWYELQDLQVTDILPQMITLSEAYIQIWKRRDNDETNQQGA
UniProt Q14694, whole entry, looked up: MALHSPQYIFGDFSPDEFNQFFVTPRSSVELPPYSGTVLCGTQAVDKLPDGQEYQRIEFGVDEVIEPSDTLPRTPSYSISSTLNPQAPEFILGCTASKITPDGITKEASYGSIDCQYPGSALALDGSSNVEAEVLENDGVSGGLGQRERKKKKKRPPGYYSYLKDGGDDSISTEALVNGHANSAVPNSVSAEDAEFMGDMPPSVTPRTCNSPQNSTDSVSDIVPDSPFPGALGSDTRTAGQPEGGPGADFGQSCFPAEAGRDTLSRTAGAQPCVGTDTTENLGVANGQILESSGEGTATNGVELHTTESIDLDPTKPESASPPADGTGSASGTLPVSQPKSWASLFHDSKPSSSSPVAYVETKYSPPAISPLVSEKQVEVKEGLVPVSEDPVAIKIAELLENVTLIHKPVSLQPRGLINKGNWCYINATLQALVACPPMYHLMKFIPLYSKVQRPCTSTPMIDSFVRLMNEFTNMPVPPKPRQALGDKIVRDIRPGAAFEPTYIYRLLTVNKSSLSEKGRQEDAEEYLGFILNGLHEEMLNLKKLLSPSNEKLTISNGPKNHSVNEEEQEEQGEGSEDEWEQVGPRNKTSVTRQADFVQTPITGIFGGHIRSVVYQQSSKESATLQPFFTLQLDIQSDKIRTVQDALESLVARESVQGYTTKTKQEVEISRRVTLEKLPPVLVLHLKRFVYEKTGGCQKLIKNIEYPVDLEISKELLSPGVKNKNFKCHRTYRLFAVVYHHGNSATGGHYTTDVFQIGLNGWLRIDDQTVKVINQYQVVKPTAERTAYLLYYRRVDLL
UniProt O14949: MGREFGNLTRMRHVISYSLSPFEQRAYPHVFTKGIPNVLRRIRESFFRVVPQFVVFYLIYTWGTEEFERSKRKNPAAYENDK
UniProt Q9NZ43: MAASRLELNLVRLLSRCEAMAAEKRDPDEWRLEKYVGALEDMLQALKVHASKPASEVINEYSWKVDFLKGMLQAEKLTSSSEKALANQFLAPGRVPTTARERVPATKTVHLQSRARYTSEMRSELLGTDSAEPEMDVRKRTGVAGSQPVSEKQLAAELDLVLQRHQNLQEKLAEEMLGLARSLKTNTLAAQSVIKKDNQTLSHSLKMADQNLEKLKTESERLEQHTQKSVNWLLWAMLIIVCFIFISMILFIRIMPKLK

The other results are listed elsewhere or left out.

Compound in this assay: c1cn2cc(-c3ccc4cn[nH]c4c3)nc(Nc3ccc(N4CCOCC4)cc3)c2n1 [entospletinib]
Briefly: log2 fold change, soluble protein after heating vs DMSO (PISA); higher = thermal stabilisation; K562 cells, 10 uM, 30 min; active = over 0.2 and 3.5 SD of the protein, either way, in both replicates (recomputed). An outline of the steps: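 K562 cells at 2×10^6 cells/mL were given 10 μM compound for 30 min. Aliquots then went through 3 min of heating across 48°C-58°C, were pooled, and were extracted in PBS with 0.5% NP-40 at 4°C, and the supernatant after 21,000xg for 90 min was quantified by TMTpro 16plex LC-MS/MS with channel sums equalised. Thermal stability relative to control samples, from duplicates, is given as log2 fold change.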
In the case of UXS1 isoform 2 (UniProt Q8NBZ7), the log2 fold change was inactive: -0.062. The figure for USP12 (UniProt O75317) is inactive: -0.022. As to UGGT2 (UniProt Q9NYU1), the log2 fold change is inactive: 0.123.

For UBR7 (UniProt Q8N806), the log2 fold change was inactive: -0.015.

Turning to UBL7 (UniProt Q96S82), the log2 fold change is inactive: -0.027. As to UCKL1 (UniProt Q9NWZ5), the log2 fold change is inactive: 0.041. UQCRC1 (UniProt P31930): the log2 fold change is inactive: -0.012. The figure for UPF3A (UniProt Q9H1J1) is inactive: 0.119. With UBXN1 (UniProt Q04323), the log2 fold change is inactive: -0.013. With VAMP8 (UniProt Q9BV40), the log2 fold change is inactive: 0.008.

In the case of URI1 (UniProt O94763), the log2 fold change was inactive: 0.013. Turning to VAC14 (UniProt Q08AM6), the log2 fold change is inactive: 0.022. For the target UVRAG (UniProt Q9P2Y5), the log2 fold change was inactive: 0.01.

Consider USP8 (UniProt P40818), for which the log2 fold change was inactive: 0.03. USP47 (UniProt Q96K76): the log2 fold change is inactive: 0.068. For UBE3C (UniProt Q15386), the log2 fold change is inactive: 0.02. UEVLD (UniProt Q8IX04): the log2 fold change is inactive: -0.042. In the case of UFSP2 (UniProt Q9NUQ7), the log2 fold change was inactive: -0.01. For the target UFC1 (UniProt Q9Y3C8), the log2 fold change is inactive: 0.024. For UBQLN3 (UniProt Q9H347), the log2 fold change is inactive: 0.291.

UBL4A (UniProt P11441): the log2 fold change is inactive: 0.047. For UQCRFS1 (UniProt P47985), the log2 fold change was inactive: -0.029. With VBP1 (UniProt P61758), the log2 fold change was inactive: -0.006. Regarding USP39 (UniProt Q53GS9), the log2 fold change was inactive: 0.04. On to USP10 isoform 2 (UniProt Q14694), for which the log2 fold change is inactive: 0.063.

VCL (UniProt P18206): the log2 fold change was inactive: -0.036. As to UPF1 (UniProt Q92900), the log2 fold change is inactive: -0.046. On to UQCRQ (UniProt O14949), for which the log2 fold change is inactive: 0.003.

Regarding USE1 (UniProt Q9NZ43), the log2 fold change was inactive: 0.037.
